# Experimental data: PubChem BioAssay AID504847 (National Center for Advancing Translational Sciences (NCATS), 2011)
# Protein sequences, listed by entry. Tags and fused reporters are not part of them.
# UniProt P11473, whole entry, looked up: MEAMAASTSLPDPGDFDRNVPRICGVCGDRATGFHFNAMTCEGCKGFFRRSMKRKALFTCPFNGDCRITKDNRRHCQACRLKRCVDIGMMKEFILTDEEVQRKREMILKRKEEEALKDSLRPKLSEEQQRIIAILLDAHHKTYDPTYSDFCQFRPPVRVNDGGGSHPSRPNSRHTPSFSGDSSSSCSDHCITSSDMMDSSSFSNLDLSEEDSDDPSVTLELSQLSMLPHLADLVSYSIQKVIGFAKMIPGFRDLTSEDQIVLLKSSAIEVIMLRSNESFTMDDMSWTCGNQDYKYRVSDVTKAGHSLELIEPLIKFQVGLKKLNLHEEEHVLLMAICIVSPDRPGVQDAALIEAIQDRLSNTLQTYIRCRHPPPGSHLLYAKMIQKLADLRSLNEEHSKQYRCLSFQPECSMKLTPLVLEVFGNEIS
# “And” between values parts separate entries of the source, which are not always exact repeats. Equal values may be shown once. Screen size: about 400,000 compounds; about 3,700 (0.93%) were called active. Inconclusive results, whose numbers are uncertain, are shown with a selection of clear calls. Calls follow the shape of the dose curve; as a rule, active = well fitted inhibition curve with a large enough effect; inconclusive = small, poorly fitted or top-dose-only effect, or another doubt; inactive = no such curve, though single readings can be large or run the other way. Potencies of inconclusive entries are doubtful fits and often do not repeat.
# Biological target: Vitamin D3 receptor (Homo sapiens) (UniProt P11473)
# Experiment: Inhibitors of the vitamin D receptor (VDR): qHTS
# Settings: VDR-SRC2-3 peptide fluorescence polarization, 2 h; max response, negative = inhibition: stronger effect = lower value
# Summary of the method: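 After 23 nl compound addition and a short centrifugation, plates sat for 2 hours at ambient temperature; polarization of fluorescence then indicated loss of VDR binding to peptide SRC2-3.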
# % is scaled to controls: 0 for no effect and ±100 for the full control effect; potency is read from the fitted curve at half-maximal effect.
SMILES,Potency,"max response, negative = inhibition"
O=C(NCc1cccnc1)/C(=C\c1ccc(-c2ccc(Cl)c(Cl)c2)o1)S(=O)(=O)c1ccccc1,active: 39.8 µM,
COc1cccc(/C=C2\SC(=S)N(CCCC(=O)N3CCCCC3CCO)C2=O)c1 (centres undefined),"inconclusive: 79.4 µM [inhibitor, single point]",
O=C(CCN1C(=O)/C(=C/c2ccco2)SC1=S)Nc1ccc(O)cc1C(=O)O,"inconclusive: 89.1 µM [inhibitor, single point]",
COc1ccc(SC[C@H](Cc2ccccc2)N2CC[C@@H](O)CCC2=O)cc1,"inconclusive: 1 µM [inhibitor, partial curve, poor fit]",
COc1nccnc1NS(=O)(=O)c1ccc(NC(=S)NC(=O)c2ccc(F)c(F)c2)cc1,"inconclusive: 44.7 µM [inhibitor, partial curve]",
O=C(O)CSc1c2c(nc3cc(C(=O)Nc4cccc(C(F)(F)F)c4)ccc13)CCCC2,"inconclusive: 20 µM [inhibitor, partial curve, poor fit]",
NC(=O)c1c(N)sc2c1CCCCC2,active: 79.4 µM,
COC(=O)/C(=C1\OC(=O)C(c2ccccc2)C1=O)c1ccccc1 (centres undefined),,inactive: -1.03%
Cc1ccsc1C1NC(=O)c2c(sc3c2CCN(C)C3)N1 (centres undefined),"inconclusive: 79.4 µM [inhibitor, single point]",
CC(C)c1nc(SCC(=O)N2CCCc3ccccc32)c2c(=O)n(C)c(=O)n(C)c2n1,,inactive: -4.54%
Fc1ccccc1C1CC(c2ccco2)=Nc2ccccc2S1 (centres undefined),active: 79.4 µM,
COc1ccc(/C=C(/NC(=O)c2ccc(OC)cc2)C(=O)NCCc2c[nH]c3ccccc23)cc1,"inconclusive: 79.4 µM [inhibitor, single point]",
O=C(O)c1cc(N/N=C/c2c[nH]c3ccccc23)ccc1Cl,"inconclusive: 70.8 µM [inhibitor, single point]",
COc1ccc(NC(C)=O)cc1NC(C)C(=O)Nc1cccc2ccccc12 (centres undefined),,inactive: -0.644%
O=C1/C(=C\c2cccs2)N=C(c2cccs2)N1Nc1ccccc1,,inactive: 12.8%
Cn1c(=O)c2c(nc(NCc3ccccc3)n2C)n(C)c1=O,,inactive: -4.01%
COC/C=C/C1=CC2=CC(=O)C(C)(OC(=O)C3CCCC3)C(=O)C2=CO1 (centres undefined),"inconclusive: 63.1 µM [inhibitor, partial curve, poor fit] and inconclusive: 50.1 µM [inhibitor, partial curve]",
COc1cc(C2C(C(=O)c3ccco3)=C(O)C(=O)N2c2cc(C)on2)cc(Br)c1O (centres undefined),,inactive: -9.09%
Cc1cc(/C=C2/C(=O)NN(c3ccccc3)C2=O)c(C)n1-c1ccc(O)cc1,"inconclusive: 100 µM [inhibitor, single point]",
CCOc1cc(C2/C(=C(/O)c3ccc(OC)cc3)C(=O)C(=O)N2CC2CCCO2)ccc1O (centres undefined),,inactive: -0.239%
O=C(N/N=C/c1ccc2c(c1)OCO2)c1ccn(Cc2ccc(Cl)cc2)n1,"inconclusive: 89.1 µM [inhibitor, partial curve, poor fit]",
O=c1cc(CN2CCOCC2)c2cc(Cl)c(O)cc2o1,"inconclusive: 100 µM [inhibitor, partial curve, poor fit]",

# Copied from the list.
# Entry of `COc1cccc(/C=C2\SC(=S)N(CCCC(=O)N3CCCCC3CCO)C2=O)c1` (centres undefined) under Potency: inconclusive: 79.4 µM [inhibitor, single point]
# Entry of `O=C(O)CSc1c2c(nc3cc(C(=O)Nc4cccc(C(F)(F)F)c4)ccc13)CCCC2` under Potency: inconclusive: 20 µM [inhibitor, partial curve, poor fit]
# Entry of `O=c1cc(CN2CCOCC2)c2cc(Cl)c(O)cc2o1` under Potency: inconclusive: 100 µM [inhibitor, partial curve, poor fit]

# The listing continues.

SMILES,Potency,"max response, negative = inhibition"
COc1ccc(CN2C(=O)Cc3c2nc(N)c2c(N)nc(N4CCOCC4)c(C#N)c32)cc1,"inconclusive: 70.8 µM [inhibitor, partial curve, poor fit]",
CCNC(=O)c1cnn(-c2ccccc2)c1-c1ccccc1,"inconclusive: 63.1 µM [inhibitor, partial curve, poor fit]",
Cc1c(NC(=O)C(C)OC(=O)/C=C/c2ccco2)c(=O)n(-c2ccccc2)n1C (centres undefined),"inconclusive: 89.1 µM [inhibitor, single point]",
COc1cc(/C=C2\SC(N)=NC2=O)ccc1OCC(=O)Nc1ccccc1C,"inconclusive: 3.98 µM [inhibitor, partial curve, poor fit]",
CC(=O)Nc1ccc(C(=O)OC2CCCCC2=O)cc1 (centres undefined),"inconclusive: 3.16 µM [inhibitor, partial curve, poor fit]",
Nc1nc2ccccc2n1/N=C/c1cccnc1,"inconclusive: 79.4 µM [inhibitor, single point]",
COc1c(C(=O)Nc2nnc(C3CC3)s2)csc1Cl,"inconclusive: 11.2 µM [inhibitor, partial curve, poor fit]",
CSc1nc(N)nc2c1ncn2CC(=O)NCCCc1ccccc1,"inconclusive: 89.1 µM [inhibitor, single point]",
O=c1c2ccccc2sn1-c1ccc(S(=O)(=O)N2CCOCC2)cc1,"inconclusive: 89.1 µM [inhibitor, single point]",
CN(C)c1ccnc2sc3c(SCc4ccc(Cl)cc4)ncnc3c12,,inactive: 14.2%
O=C(Nc1nc(-c2ccco2)c(-c2ccco2)s1)C1CC(=O)N(c2ccc3c(c2)OCCO3)C1 (centres undefined),"inconclusive: 89.1 µM [inhibitor, single point]",
COc1cc2c(cc1OC)-c1c(oc3cc(O)cc(O)c3c1=O)CO2,"inconclusive: 100 µM [inhibitor, single point]",
Cc1cc(C)c2c(=O)n(CC(=O)Nc3cccc(Cl)c3C)sc2n1,active: 17.8 µM,
O=C(CC1C(=O)NCCN1Cc1cccc(Oc2ccccc2)c1)NCCc1ccncc1 (centres undefined),"inconclusive: 0.708 µM [inhibitor, full curve, poor fit]",
COc1ccc(Cn2c(CCC(=O)Nc3ccc(OC)c(Cl)c3)nc3cccnc32)cc1,,inactive: 3.66%
CN(C)C(=S)Nc1nc2ccccc2s1,"inconclusive: 56.2 µM [inhibitor, partial curve, poor fit]",
CC1(C(=O)N(CC(=O)NC2CCCC2)Cc2ccccc2)CC(=O)N=C2C=CC=CN21 (centres undefined),,inactive: 2.49%
CCc1cc(=O)oc2c(C)c(OCC(=O)NCCN3CCOCC3)ccc12,"inconclusive: 39.8 µM [inhibitor, partial curve, poor fit]",
Cc1ccc(C(=O)c2cn(Cc3ccccc3)c3ccccc3c2=O)cc1,"inconclusive: 89.1 µM [inhibitor, single point]",
CCOc1ccc(S(=O)(=O)n2nc(C)cc2C)c2ccccc12,,inactive: 16.1%
S=C(NCc1ccccc1)NNc1nc2ccccc2[nH]1,active: 25.1 µM,
Cc1ccc2c(CC(=O)Nc3ccc(S(=O)(=O)N4CCCC(C)C4)cc3)coc2c1 (centres undefined),,inactive: 20.1%

SMILES,Potency,"max response, negative = inhibition"
O=c1cc(-c2ccc(Cl)cc2)[nH][nH]1,"inconclusive: 50.1 µM [inhibitor, partial curve, poor fit]",
COc1ccc(C(=O)OCc2ccccc2F)cc1S(=O)(=O)N1CCCC1,,inactive: -9.95%
CCOc1ccc(-c2cc3c(=O)n(CC(=O)NCc4ccccc4)ccn3n2)cc1,,inactive: -0.469%
Fc1ccc(-n2nc(-c3ccccc3)c3cnc4ccccc4c32)cc1Cl,"inconclusive: 89.1 µM [inhibitor, single point]",
CC(C)CN(C(=O)C1CCCCC1)C1CCS(=O)(=O)C1 (centres undefined),"inconclusive: 89.1 µM [inhibitor, single point]",
O=C(CC1C(=O)NCCN1Cc1ccc(F)cc1)NCCOc1cccnc1 (centres undefined),"inconclusive: 50.1 µM [inhibitor, partial curve]",
CCOC(=O)COc1ccc(C(c2c(C)[nH][nH]c2=O)c2c(C)[nH][nH]c2=O)cc1,"inconclusive: 89.1 µM [inhibitor, partial curve, poor fit]",
COc1cc2c(cc1OC)-c1cc3nc4ccccc4nc3n1C(C)(C)C2,active: 7.08 µM,
CCOc1ccc(C(=O)Nc2ccc(C(=O)OCc3cc(=O)n4c(C)csc4n3)cc2)cc1,,inactive: -0.782%
COc1ccc(CCNC(=O)[C@H](C)NC(=O)[C@@H]2CSC3c4ccccc4C(=O)N32)cc1 (some centres undefined),"inconclusive: 56.2 µM [inhibitor, partial curve, poor fit]",
Cc1ccc(S(=O)(=O)N(C)c2nc3ccccc3[nH]c2=S)cc1,"inconclusive: 28.2 µM [inhibitor, partial curve, poor fit]",
COc1ccc(CCCOC(Cn2ccnc2)c2ccc(OC)cc2)cc1 (centres undefined),"inconclusive: 89.1 µM [inhibitor, partial curve, poor fit] and inconclusive: 79.4 µM [inhibitor, partial curve, poor fit]",
COc1cccc(NCc2nnc3n2CCCCC3)c1,,inactive: 4.32%
Cc1ccc(S(=O)(=O)Nc2ccccc2N=Cc2ccc([N+](=O)[O-])cc2[N+](=O)[O-])cc1,"inconclusive: 89.1 µM [inhibitor, single point]",
CCCOc1ccc(CN2C(=O)C(=O)c3cccc(C)c32)cc1,"inconclusive: 39.8 µM [inhibitor, single point]",
CSc1nnc(C)c(/C=C/Nc2ccc(F)cc2F)n1,,inactive: 18%
COc1ccc2c(c1)C(=O)[C@H](O)[C@@H](c1ccc(OC)c(Br)c1)O2,,inactive: -4.34% and inactive: -6.75%
CCCN1C(=O)C(=O)c2cc(Cl)ccc21,"inconclusive: 50.1 µM [inhibitor, partial curve, poor fit]",
COc1ccccc1N(CCC#N)C(=S)Nc1ccc(S(=O)(=O)N2CCOCC2)cc1,"inconclusive: 50.1 µM [inhibitor, partial curve, poor fit]",
COc1ccc(/C=C/C(=O)c2ccccc2)c(OC)c1,"inconclusive: 89.1 µM [inhibitor, single point]",
